# Positions count from the first letter of the chain named. Some of the results follow. For some assays here: At the low end of the ranking the order means little.
# Experiments:
# Settings in all cases: yeast three-hybrid, YBZ-1, SC-Leu-His + 0.5 mM 3-AT, 4 days
# [1] = molecular target: T1, PUM1 PUF domain R4-VNT N971V + H972N + Q975T (Homo sapiens) (UniProt Q14671)
# T1 sequence: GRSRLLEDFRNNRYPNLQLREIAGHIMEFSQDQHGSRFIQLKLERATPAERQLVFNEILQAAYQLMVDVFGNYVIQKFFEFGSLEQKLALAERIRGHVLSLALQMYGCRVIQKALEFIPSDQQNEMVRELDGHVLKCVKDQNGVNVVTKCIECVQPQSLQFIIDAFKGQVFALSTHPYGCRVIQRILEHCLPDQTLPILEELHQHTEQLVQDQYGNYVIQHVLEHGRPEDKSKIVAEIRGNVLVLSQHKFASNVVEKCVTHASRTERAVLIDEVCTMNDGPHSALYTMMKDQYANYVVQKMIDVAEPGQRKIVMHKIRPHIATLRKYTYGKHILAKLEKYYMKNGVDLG
# [2] = molecular target: T2, PUM1 PUF domain R4-VNV N971V + H972N + Q975V (Homo sapiens) (UniProt Q14671)
# T2 sequence: T1 sequence with T148V
# [3] = molecular target: T3, PUM1 PUF domain R4-VPT N971V + H972P + Q975T (Homo sapiens) (UniProt Q14671)
# T3 sequence: T1 sequence with N145P
# [4] = molecular target: T4, PUM1 PUF domain R4-VYG N971V + H972Y + Q975G (UniProt Q14671)
# T4 sequence: T1 sequence with N145Y, T148G
# [5] = molecular target: T5, PUM1 PUF domain R4-WSR N971W + H972S + Q975R (Homo sapiens) (UniProt Q14671)
# T5 sequence: T1 sequence with V144W, N145S, T148R
# [6] = molecular target: T6, PUM1 PUF domain R5-AAR C1007A + R1008A + Q1011R (Homo sapiens) (UniProt Q14671)
# T6 sequence: T1 sequence with V144N, N145H, T148Q, C180A, R181A, Q184R
# [7] = molecular target: T7, PUM1 PUF domain R5-AKR C1007A + R1008K + Q1011R (Homo sapiens) (UniProt Q14671)
# T7 sequence: T1 sequence with V144N, N145H, T148Q, C180A, R181K, Q184R
# [8] = molecular target: T8, PUM1 PUF domain R5-ASR C1007A + R1008S + Q1011R (Homo sapiens) (UniProt Q14671)
# T8 sequence: T1 sequence with V144N, N145H, T148Q, C180A, R181S, Q184R
# [9] = molecular target: T9, PUM1 PUF domain R5-ATR C1007A + R1008T + Q1011R (Homo sapiens) (UniProt Q14671)
# T9 sequence: T1 sequence with V144N, N145H, T148Q, C180A, R181T, Q184R
# [10] = molecular target: T10, PUM1 PUF domain R5-CAR R1008A + Q1011R (Homo sapiens) (UniProt Q14671)
# T10 sequence: T1 sequence with V144N, N145H, T148Q, R181A, Q184R
# [11] = molecular target: T11, PUM1 PUF domain R5-CGR R1008G + Q1011R (Homo sapiens) (UniProt Q14671)
# T11 sequence: T1 sequence with V144N, N145H, T148Q, R181G, Q184R
# [12] = molecular target: T12, PUM1 PUF domain R5-CKR R1008K + Q1011R (Homo sapiens) (UniProt Q14671)
# T12 sequence: T1 sequence with V144N, N145H, T148Q, R181K, Q184R
# [13] = molecular target: T13, PUM1 PUF domain R5-CNH R1008N + Q1011H (UniProt Q14671)
# T13 sequence: T1 sequence with V144N, N145H, T148Q, R181N, Q184H
# [14] = molecular target: T14, PUM1 PUF domain R5-DCR C1007D + R1008C + Q1011R (UniProt Q14671)
# T14 sequence: T1 sequence with V144N, N145H, T148Q, C180D, R181C, Q184R
# [15] = molecular target: T15, PUM1 PUF domain R5-DFR C1007D + R1008F + Q1011R (Homo sapiens) (UniProt Q14671)
# T15 sequence: T1 sequence with V144N, N145H, T148Q, C180D, R181F, Q184R
# [16] = molecular target: T16, PUM1 PUF domain R5-DGA C1007D + R1008G + Q1011A (UniProt Q14671)
# T16 sequence: T1 sequence with V144N, N145H, T148Q, C180D, R181G, Q184A
# [17] = molecular target: T17, PUM1 PUF domain R5-DHG C1007D + R1008H + Q1011G (UniProt Q14671)
# T17 sequence: T1 sequence with V144N, N145H, T148Q, C180D, R181H, Q184G
# [18] = molecular target: T18, PUM1 PUF domain R5-DHS C1007D + R1008H + Q1011S (Homo sapiens) (UniProt Q14671)
# T18 sequence: T1 sequence with V144N, N145H, T148Q, C180D, R181H, Q184S
# [19] = molecular target: T19, PUM1 PUF domain R5-DHW C1007D + R1008H + Q1011W (UniProt Q14671)
# T19 sequence: T1 sequence with V144N, N145H, T148Q, C180D, R181H, Q184W
# [20] = molecular target: T20, PUM1 PUF domain R5-DIR C1007D + R1008I + Q1011R (UniProt Q14671)
# T20 sequence: T1 sequence with V144N, N145H, T148Q, C180D, R181I, Q184R
sequence,measurement,setting,value
GGCUAGAACUAGUGGAUCCCCCGGCGCCCGGCGGCUCGAGCCCGGGUAAGUGUAAAUAGUCUGCAUGCCGCCGGGCGCCAUGCCUGCAGGUCGACUCUAGAAAACAUG,binding signal (log2 enrichment (interaction score)),[1],-2.67
same,binding signal (log2 enrichment (interaction score)),[2],-2.46
same,binding signal (log2 enrichment (interaction score)),[3],-0.66
same,binding signal (log2 enrichment (interaction score)),[4],-5.26
same,binding signal (log2 enrichment (interaction score)),[5],0.55
same,binding signal (log2 enrichment (interaction score)),[6],-1.2
same,binding signal (log2 enrichment (interaction score)),[7],0.01
same,binding signal (log2 enrichment (interaction score)),[8],0.05
same,binding signal (log2 enrichment (interaction score)),[9],-1.04
same,binding signal (log2 enrichment (interaction score)),[10],0.26
same,binding signal (log2 enrichment (interaction score)),[11],-0.26
same,binding signal (log2 enrichment (interaction score)),[12],1.16
same,binding signal (log2 enrichment (interaction score)),[13],< -7.09
same,binding signal (log2 enrichment (interaction score)),[14],< -6.6
same,binding signal (log2 enrichment (interaction score)),[15],0.49
same,binding signal (log2 enrichment (interaction score)),[16],< -8.63
same,binding signal (log2 enrichment (interaction score)),[17],-2.9
same,binding signal (log2 enrichment (interaction score)),[18],-1.79
same,binding signal (log2 enrichment (interaction score)),[19],< -5.95
same,binding signal (log2 enrichment (interaction score)),[20],-5.46

# Reformatted tab-delimited: part of the list above
sequence	measurement	setting	value
GGCUAGAACUAGUGGAUCCCCCGGCGCCCGGCGGCUCGAGCCCGGGUAAGUGUAAAUAGUCUGCAUGCCGCCGGGCGCCAUGCCUGCAGGUCGACUCUAGAAAACAUG	binding signal (log2 enrichment (interaction score))	[4]	-5.26
same	binding signal (log2 enrichment (interaction score))	[20]	-5.46

# From paper PMC8384837
